The results in this text go back to patent US12216122B2, “Compositions and methods relating to detection, inhibition, and imaging of indoleamine 2,3-dioxygenase 1 (IDO1)” (Regeneron Pharmaceuticals, Inc., priority 2019, dated 2025).

Structures are written as SMILES. Bridge positions count the residues as written; N and C are the ends. Square brackets hold non-standard residues; d marks the D form. Triazole bridges read from a SMILES are 1,4-linked. Peptide text beside a SMILES is read from it. * marks the point of attachment. Biotinyl(3aR,4R,6aS) = O=C1N[C@@H]2[C@@H](CS[C@@H]2CCCCC(=O)*)N1; dTrp(1-Me) = Cn1cc(C[C@@H](N)C(=O)O)c2ccccc21; Lys(N3) = [N-]=[N+]=NCCCC[C@H](N)C(=O)O; dPhe(4-F) = N[C@H](Cc1ccc(F)cc1)C(=O)O; AEEEA = NCCOCCOCCOCC(=O)O; Pra = C#CC[C@H](N)C(=O)O

The subject of the data set is 6×His-tagged IDO1 epitopes. The experiment in a line: Point ELISA for orientation of macrocycle binding to synthetic IDO1 epitopes. The following applies: 2 μM epitope, biotin-PEG3-modified macrocycle immobilized. Also on record: species or system human.
For the molecule `Cn1cc(C[C@H]2NC(=O)[C@@H](Cc3ccccc3)NC(=O)[C@@H](CCCNC(=N)N)NC(=O)[C@@H](Cc3ccccc3)NC(=O)[C@@H](NC(=O)COCCOCCOCCNC(=O)CCCC[C@H]3SC[C@H]4NC(=O)N[C@H]43)Cc3cn(nn3)CCCC[C@@H](C(N)=O)NC(=O)[C@@H](CO)NC2=O)c2ccccc21` [frf(Me-Trp)s, biotin-PEG3-Cy(frf(Me-Trp)s)] ({Biotinyl(3aR,4R,6aS)-AEEEA}-[Pra][dF][dR][dF][dTrp(1-Me)][dS][Lys(N3)]-NH2; triazole 1-7), the “Orientation of binding to scrambled epitope variants (maximum ELISA signal)” value (“Orientation of binding” below) is “preferential binding to the N-terminal portion of IDO1 Epitope1”. Consider `CC(C)C[C@H]1NC(=O)[C@@H](CC(N)=O)NC(=O)[C@@H](NC(=O)COCCOCCOCCNC(=O)CCCC[C@H]2SC[C@H]3NC(=O)N[C@H]32)Cc2cn(nn2)CCCC[C@@H](C(N)=O)NC(=O)[C@@H](CCCNC(=N)N)NC(=O)[C@@H](Cc2cn(C)c3ccccc23)NC(=O)[C@@H](Cc2c[nH]c3ccccc23)NC1=O` [nlw(Me-Trp)r, biotin-PEG3-Cy(nlw(Me-Trp)r)] ({Biotinyl(3aR,4R,6aS)-AEEEA}-[Pra][dN][dL][dW][dTrp(1-Me)][dR][Lys(N3)]-NH2; triazole 1-7), for which the “Orientation of binding” value is on record as “preferential binding to the N-terminal portion of IDO1 Epitope2”. For `NC(=O)[C@@H]1CCCCn2cc(nn2)C[C@H](NC(=O)COCCOCCOCCNC(=O)CCCC[C@H]2SC[C@H]3NC(=O)N[C@H]32)C(=O)N[C@H](CO)C(=O)N2CCC[C@@H]2C(=O)N[C@H](Cc2c[nH]c3ccccc23)C(=O)N[C@H](Cc2c[nH]c3ccccc23)C(=O)N[C@H](Cc2ccc(F)cc2)C(=O)N1` [spww(F-Phe), biotin-PEG3-Cy(spww(F-Phe))] ({Biotinyl(3aR,4R,6aS)-AEEEA}-[Pra][dS][dP][dW][dW][dPhe(4-F)][Lys(N3)]-NH2; triazole 1-7), the “Orientation of binding” value is “preferential binding to the N-terminal portion of IDO1 Epitope2”.
